Data published in PubChem BioAssay AID540276 (National Center for Advancing Translational Sciences (NCATS), 2011).
About 5,400 (1.8%) of roughly 300,000 compounds were called active. Inconclusive results, whose numbers are uncertain, are shown with a selection of clear calls. Calls follow the shape of the full dose curve; tested in HEK293 cells. Potencies beside an inconclusive call are fits to weak or partial responses and may not hold up.

Experiment: qHTS for inhibitors of binding or entry into cells for Marburg Virus
Conditions: Marburg virus pseudotyped entry inhibition, cell reporter; series mostly up to 37.8 µM
Potency is read from the fitted curve at half-maximal effect.

Row | Compound | Potency
1 | Cc1c(C(=O)OC2CCCCC2)[nH]c2c1C(=O)CC(c1ccc(F)cc1)C2 (stereo unspecified) | inconclusive: 4.47 µM [activator, full curve, poor fit]
2 | Cc1cc(NCCCn2ccnc2)n2ncc(-c3ccccc3)c2n1 | inconclusive: 7.08 µM [inhibitor, partial curve, poor fit]
3 | CC#CCN1c2ccccc2[C@]23CCC(=O)N(Cc4ccco4)C2=NC(C(=O)OC)=C(C(=O)OC)[C@H]13 | inactive
4 | COc1cccc(-c2cc(C(F)(F)F)nc(NCCc3ccc(OC)c(OC)c3)n2)c1 | inconclusive: 5.62 µM [inhibitor, partial curve, poor fit]
5 | CN(C)S(=O)(=O)c1ccc(C(=O)Nc2cccnc2)cc1 | inconclusive: 10 µM [activator, partial curve, poor fit]
6 | CSCCC(NC(=O)c1ccc(Cl)cc1)C(=O)OCC(=O)c1ccc[nH]1 (stereo unspecified) | inconclusive: 5.62 µM [activator, single point]
7 | Cc1noc(C)c1COc1cccc(C(=O)OCC(=O)NC(=O)c2ccc(OC(F)F)cc2)c1 | inconclusive: 3.16 µM [activator, single point]
8 | CCCN(CCC)[C@@H]1CCc2ccc(O)cc2C1 | inconclusive: 35.5 µM [inhibitor, single point]
9 | COC(=O)[C@@]1(Cc2ccc(F)cc2)[C@H]2c3cc(C(=O)N(C)C)n(Cc4ccc(OC(F)(F)F)cc4)c3C[C@H]2CN1C(=O)c1ccccc1 | inconclusive: 25.9 µM [inhibitor, partial curve, poor fit]
10 | Cc1ccc(NC(=O)c2ccncc2)cc1S(=O)(=O)N(C)C | inactive
11 | CCCN(CC(=O)Nc1cc(Cl)ccc1Cl)C(=O)c1ccc(N2CCCC2=O)cc1 | inconclusive: 17.8 µM [inhibitor, single point]
12 | CCOc1cc(N2CCOCC2)c(OCC)cc1NC(=O)c1cc(C)cc(C)c1 | inactive
13 | COc1cc(S(=O)(=O)NC2CCCCC2C)ccc1F (stereo unspecified) | inconclusive: 10 µM [inhibitor, partial curve, poor fit]
14 | Cc1ccc2oc(C(=O)N(C)CCC(O)c3ccccc3)c(C)c2c1 (stereo unspecified) | inactive
15 | Cc1cccc(N2CCN(C(=O)c3ccc(S(=O)(=O)N(C)c4ccccc4)cc3)CC2)c1C | inconclusive: 8.91 µM [inhibitor, partial curve, poor fit]
16 | O=C(c1cnc(N2CCN(c3ncccn3)CC2)c2ccccc12)N1CCN(c2ncccn2)CC1 | inconclusive: 35.5 µM [inhibitor, single point]
17 | COc1ccc(C(=O)OCC(=O)N2CCc3ccccc3C2)cc1OC | inconclusive: 35.5 µM [activator, single point]
18 | COc1ccc2nc3ccccc3[n+]([O-])c2c1 | inconclusive: 5.62 µM [activator, single point]
19 | c1ccc(CC2CCN(c3ncnc4sccc34)CC2)cc1 | inactive
20 | O=S(=O)(c1ccc(Cl)c(S(=O)(=O)N2CCCC2)c1)N1CCCC1 | inconclusive: 39.8 µM [inhibitor, partial curve, poor fit]
21 | O=C(C[n+]1cc(Br)cc(Br)c1)c1ccc(Cl)cc1 | inactive
22 | Cc1cc(NC(=O)CCN2C(=O)/C(=C\c3ccccc3Cl)SC2=S)no1 | inactive

Row | Compound | Potency
23 | COc1ccccc1C(=O)Nc1ccc2nc(SCC(=O)N3CCCc4ccccc43)sc2c1 | inconclusive: 35.5 µM [inhibitor, single point]
24 | COc1ccc(C2(C)NC(=O)N(CC(=O)Nc3ccc4ccccc4c3)C2=O)cc1OC (stereo unspecified) | inconclusive: 10 µM [inhibitor, partial curve, poor fit]
25 | COc1ccccc1C(=O)N/C(=C\c1cn(S(=O)(=O)N(C)C)c2ccccc12)C(=O)NCCCn1ccnc1 | inconclusive: 35.5 µM [inhibitor, single point]
26 | Cc1ccc(S(=O)(=O)n2c3ccccc3c3nnc(C(=O)c4ccccc4)nc32)cc1 | inconclusive: 2.66 µM [activator, partial curve]
27 | COc1ccc(CCNC(=O)C2CCN(S(=O)(=O)c3cnc[nH]3)CC2)cc1OC | inconclusive: 2.82 µM [inhibitor, partial curve, poor fit]
28 | Cc1ccc(NC(=O)C2CCCC2)cc1Cl | inconclusive: 35.5 µM [inhibitor, single point]
29 | Cc1c(C(=O)OCC(=O)N2CC(C)CC(C)C2)oc2ccccc12 (stereo unspecified) | inconclusive: 35.5 µM [inhibitor, partial curve, poor fit]
30 | COc1ccc(NC(=O)CSc2nc(SC)ns2)c(OC)c1 | inconclusive: 1.58 µM [activator, full curve, poor fit]
31 | COc1ccccc1C(=O)Nc1nc2n(n1)C(c1ccc(F)cc1)C=C(c1ccc(Cl)cc1)N2 (stereo unspecified) | inactive
32 | Cn1c(SCC(=O)c2ccccc2)nnc1-c1ccc(O)cc1 | inactive
33 | CC(=O)Nc1ccc(CN2CCC(Oc3ccc(C(=O)N4CCCC4)cc3)CC2)cc1 | inconclusive: 0.891 µM [inhibitor, partial curve]
34 | Cc1c(C(=O)Nc2ccccc2[N+](=O)[O-])csc1-c1ccccc1 | inconclusive: 35.5 µM [inhibitor, single point]
35 | c1ccc(NNC2=NCCS2)cc1 | inconclusive: 3.55 µM [activator, single point]
36 | CCCCCCN1Cc2ccccc2C1 | inconclusive: 8.91 µM [activator, partial curve]
37 | Cc1ccc(SCc2ccc(C(=O)Nc3ccccc3C(=O)NC(C)C)cc2)cc1 | inconclusive: 3.16 µM [activator, partial curve]
38 | Cc1ccnc(NC(=O)CCS(=O)(=O)c2ccccc2)c1 | inactive
39 | C=CCN1CC(c2nc3ccccc3n2Cc2ccccc2)CC1=O (stereo unspecified) | inconclusive: 4.11 µM [inhibitor, partial curve, poor fit]
40 | CCOc1ccc2nc(NC(=O)/C=C/c3ccc4c(c3)OCO4)sc2c1 | inactive
41 | O=C(NC12CC3CC(CC(C3)C1)C2)c1cc(F)c(F)cc1Cl | inconclusive: 35.5 µM [inhibitor, partial curve, poor fit]
42 | O=C(NCCc1ccccc1)N1c2ccccc2Sc2ccccc21 | inconclusive: 25.1 µM [inhibitor, single point]
43 | CC(Sc1nc(C(C)(C)C)cc(-c2ccccc2)c1C#N)C(=O)Nc1ccccc1 (stereo unspecified) | inconclusive: 0.562 µM [inhibitor, full curve, poor fit]
44 | O=C(Nc1ccc(Cl)cc1Cl)c1ccc2c(=O)n3c(nc2c1)CCC3 | inconclusive: 0.631 µM [activator, full curve]

Some of the entries above in a different format:
Row	Compound	Potency
26	Cc1ccc(S(=O)(=O)n2c3ccccc3c3nnc(C(=O)c4ccccc4)nc32)cc1	inconclusive: 2.66 µM [activator, partial curve]
43	CC(Sc1nc(C(C)(C)C)cc(-c2ccccc2)c1C#N)C(=O)Nc1ccccc1 (stereo unspecified)	inconclusive: 0.562 µM [inhibitor, full curve, poor fit]

(further entries)

Row | Compound | Potency
45 | COCCCNC(=S)NC1CC2CCCC(C1)N2Cc1cccs1 (stereo unspecified) | inconclusive: 5.8 µM [inhibitor, partial curve, poor fit]
46 | CCCCN(C(=O)C1CCC(CNS(=O)(=O)c2cccc3nsnc23)CC1)c1ccccc1 (stereo unspecified) | inconclusive: 25.1 µM [inhibitor, single point]
47 | Cc1ccc(C(=O)N/N=C/c2nc3ccccc3n2C)cc1 | inactive
48 | O=C(CCn1cncn1)N1CCCC(N2CCN(c3cccc(C(F)(F)F)c3)CC2)C1 (stereo unspecified) | inactive
49 | O=S(=O)(Nc1cccc2c1CCCC2)c1ccc(Cl)cc1 | inconclusive: 0.562 µM [activator, full curve, poor fit]
50 | Cc1cc2oc(=O)c(CC(=O)NCCc3ccccc3F)c(C)c2c2occ(C(C)(C)C)c12 | inactive
51 | COc1ccc(C/C(N)=N/OC(=O)Cc2ccccc2)cc1OC | inconclusive: 3.16 µM [activator, single point]
52 | CC(C)n1ncc2c(C(=O)Nc3cccc(S(=O)(=O)N(C)C)c3)cc(C3CC3)nc21 | inconclusive: 12.6 µM [inhibitor, partial curve, poor fit]
53 | CCC(CC)C1C(C#N)=C(N)Oc2n[nH]c(C)c21 (stereo unspecified) | inconclusive: 25.9 µM [inhibitor, single point]
54 | Cc1ccc(NC(=O)CN(C)C(=O)c2cn(Cc3ccccc3)nc2-c2cccnc2)cc1 | inconclusive: 10 µM [activator, single point]
55 | CCC(=O)N1CCc2cc(S(=O)(=O)NC(C(=O)N3CCc4ccccc4C3)C(C)C)ccc21 (stereo unspecified) | inconclusive: 1.3 µM [inhibitor, full curve, poor fit]
56 | C1=C(c2ccco2)N2CCN=C2S1 | inconclusive: 25.1 µM [activator, partial curve, poor fit]
57 | Cc1ccc(C(=O)CSc2nc(C(C)C)nc3ccccc23)cc1 | inactive
58 | NC(=S)NN=C1CCSCC1 | inconclusive: 0.562 µM [inhibitor, full curve, poor fit]
59 | CC(CC(=O)NCc1ccccc1)C1CCCO1 (stereo unspecified) | inactive
60 | Cc1cc(C)cc(NC(=O)Nc2ccc(N3CCCCC3)cc2)c1 | inconclusive: 5.62 µM [activator, single point]
61 | O=[N+]([O-])c1ccc(-c2csc(NN=C3CCCC3)n2)cc1 | inconclusive: 15.8 µM [inhibitor, single point]
62 | COc1ccc(OCCn2c(NC(=O)c3ccc(OC)cc3)nc3ccccc32)cc1 | inactive
63 | N=C(N)c1ccc(N)cc1 | inactive
64 | O=C(Nc1sc2c(c1C(=O)NCC1CCCO1)CCCC2)c1cccs1 (stereo unspecified) | inconclusive: 18.3 µM [inhibitor, single point]
65 | Cc1nn(-c2ccccc2)c(C)c1/C=N/NC(=O)CSc1nc2ccccc2c(=O)n1-c1ccccc1 | inconclusive: 3.55 µM [inhibitor, partial curve, poor fit]
66 | CC1SCC(NC(=O)c2ccccc2Cl)CS1 (stereo unspecified) | inconclusive: 2.82 µM [activator, full curve]
